Series [1] in a line: Ferrocyanide treatment in solution with regeneration reagents (reducing agents).
The nature of series [2]: Cycling in a redox flow cell (OCV, electrochemical activity). To be noted: RFB cell; DHPS solution containing approx. 15-20% of MHPS and DHP.
The mark [3] stands for this setting: 125 mM reagent, room temperature, 2 h, start 347 mM hexacyanoferrate (II), 257 mM hexacyanoferrate (III), SOC 43%.

In the case of `O=S([O-])S(=O)[O-].[Na+].[Na+]` [Sodium dithionite], in series [1] (50 mM reagent, room temperature, 2 h, start SOC 43%), the “hexacyanoferrate concentration c(Fe(CN)6^2)” value was determined as 594 mM.
For the compound `O=C1O[C@H]([C@@H](O)CO)C(O)=C1O` [Ascorbic acid], the “hexacyanoferrate concentration c(Fe(CN)6^2)” value in series [1] (300 mM reagent (as 0.5M solution in 1M KOH/NaOH), room temperature, 3 h, start SOC 43%) is reported as 415 mM.
As to `O=S([O-])[O-].[Na+].[Na+]` [Sodium sulfite], in series [1] (setting [3]), the “hexacyanoferrate concentration c(Fe(CN)6^2)” value is listed as 591 mM.
For the compound `O=C[O-].[Na+]` [Sodium formate], the “hexacyanoferrate concentration c(Fe(CN)6^2)” value in series [1] (125 mM reagent, 40° C., 43 h, start SOC 43%) is given as 538 mM.
On to `O=S([O-])[O-].[K+].[K+]` [Potassium sulfite], for which, in series [1] (setting [3]), the “hexacyanoferrate concentration c(Fe(CN)6^2)” value came out at 587 mM.
Consider “Monohydroxyphenazinesulfonic acid [MHPS]”, for which the electrochemical activity result in series [2] was “electrochemically active”.

The values above are taken from US12731806B2, “Electrolyte regeneration for organic redox flow batteries based on water-soluble phenazine-based compounds” (CMBLU Energy AG, priority 2020, dated 2026).
